To fix the notation:
B1: PRO034 (anti-Notch2 mAb 1 on a human IgG1 LALA-PG backbone, kappa light chain) (antibody, V domains shown)
VH: EVQLVESGGGLVQPGGSLRLSCAASGYSFTSYGMSWVRQAPGKGLEWVSYIYPYSGATYYADSVKGRFTISADTSKNTAYLQMNSLRAEDTAVYYCARHSGYYRISSAMDVWGQGTLVTVSS
VL: DIQMTQSPSSLSASVGDRVTITCRASQSISSYLAWYQQKPGKAPKLLIYGASSRASGVPSRFSGSGSGTDFTLTISSLQPEDFATYYCQQYYSSPLTFGQGTKVEIKR
B2: PRO037 (anti-Notch2 mAb 4 on a human IgG1 LALA-PG backbone, kappa light chain) (antibody, V domains shown)
VH: B1 VH with S28T, T30S
VL: B1 VL with I29N, S30R, S31R, Y32F, S93I
B3: PRO035 (anti-Notch2 mAb 2 on a human IgG1 LALA-PG backbone, kappa light chain) (antibody, V domains shown)
VH: B1 VH with S28T, T30S
VL: B1 VL with I29N, S30R, S31R, Y32F, S93I
B4: PRO036 (anti-Notch2 mAb 3 on a human IgG1 LALA-PG backbone, kappa light chain) (antibody, V domains shown)
VH: B1 VH with S28T, T30S
VL: B1 VL with I29V, S30R, Y32F, G50R, S53I, S93I, L96W

Changes are numbered by the printed parent chain. No constants are given. Whether binding was seen depends on the method and setting. Some results given as binding are weak or reduced against the parent protein; the word gives no strength. Sequences can lack the tags named with a protein.

The first experiment has as its target T1, recombinant His-tagged human Notch2 NRR domain, expressed and purified in house (human) (UniProt Q04721).
T1 sequence (looked up): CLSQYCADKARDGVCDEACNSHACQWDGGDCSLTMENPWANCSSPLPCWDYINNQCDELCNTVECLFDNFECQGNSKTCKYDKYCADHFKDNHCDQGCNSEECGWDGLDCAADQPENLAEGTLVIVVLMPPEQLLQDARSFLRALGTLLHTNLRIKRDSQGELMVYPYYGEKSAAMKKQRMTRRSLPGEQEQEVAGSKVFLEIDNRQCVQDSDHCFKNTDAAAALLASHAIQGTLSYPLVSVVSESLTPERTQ
In words: ELISA, His-tagged Notch2 NRR domain coated at 1 µg/mL. (In an ELISA, binding on a coated surface is turned into a signal by an enzyme label.)
As to B1, the binding entry is “binds”.

As to B2, the binding entry is “binds”.

With B3, the binding entry is reported as “binds”.

Take B4: the binding entry is on record as “binds”.

For another experiment, the target named is T2, recombinant His-tagged murine Notch2 NRR domain, expressed and purified in house (murine) (UniProt O35516).
T2 sequence (looked up): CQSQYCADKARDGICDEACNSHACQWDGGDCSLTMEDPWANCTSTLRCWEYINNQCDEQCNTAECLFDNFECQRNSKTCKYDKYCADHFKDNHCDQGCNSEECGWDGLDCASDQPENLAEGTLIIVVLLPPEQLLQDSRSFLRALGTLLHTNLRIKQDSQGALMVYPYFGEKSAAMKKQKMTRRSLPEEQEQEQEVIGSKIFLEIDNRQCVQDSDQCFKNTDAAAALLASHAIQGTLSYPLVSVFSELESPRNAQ
The description is as above.
Regarding B1, the binding result is “binds”.

Regarding B2, the binding entry is given as “binds”.

As for B3, the binding entry is on record as “binds”.

In the case of B4, the binding entry is recorded as “binds”.

The target in the next experiment is T1, recombinant His-tagged human Notch2 NRR domain, expressed and purified in house (human). Put plainly: BLI, antibody on anti-human IgG Fc biosensors, Notch2 NRR protein 1000 nM to 31 nM. For orientation: Biolayer interferometry detects binding as a change in optical thickness at a sensor tip.
Turning to B1, the binding entry is “binds”.

As for B2, the binding entry is listed as “binds”.

On to B3, for which the binding entry is given as “binds”.

With B4, the binding entry is “binds”.

The target in another experiment is T2, recombinant His-tagged murine Notch2 NRR domain, expressed and purified in house (murine). The experiment is described as above.
Regarding B1, the binding result is reported as “binds”.

B2: the binding result is given as “binds”.

For the molecule B3, the binding result is “binds”.

In the case of B4, the binding entry is recorded as “binds”.

Source of the values: patent publication US20230203158A1.
